Assay results from article PMC4664969.
Like-named read-outs stand apart in the source and are kept apart here. These are yes or no findings as the source states them, for the method shown. In cells and extracts the contact can be indirect. Some results given as binding are weak or reduced against the parent protein; the word gives no strength. Tags and fused reporters may be left off the sequences shown.

By UniProt entry, the sequences of proteins in these tests, tags left out.
UniProt Q8N6T7: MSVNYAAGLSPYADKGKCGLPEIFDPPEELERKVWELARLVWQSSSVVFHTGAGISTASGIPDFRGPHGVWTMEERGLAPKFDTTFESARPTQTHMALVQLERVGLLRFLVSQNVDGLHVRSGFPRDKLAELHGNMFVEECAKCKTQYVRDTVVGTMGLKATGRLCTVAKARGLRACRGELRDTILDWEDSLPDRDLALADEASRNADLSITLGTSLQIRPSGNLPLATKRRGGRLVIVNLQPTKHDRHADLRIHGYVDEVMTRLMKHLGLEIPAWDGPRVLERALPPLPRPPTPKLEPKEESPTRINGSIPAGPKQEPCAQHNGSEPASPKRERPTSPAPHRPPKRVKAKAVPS
UniProt Q09472: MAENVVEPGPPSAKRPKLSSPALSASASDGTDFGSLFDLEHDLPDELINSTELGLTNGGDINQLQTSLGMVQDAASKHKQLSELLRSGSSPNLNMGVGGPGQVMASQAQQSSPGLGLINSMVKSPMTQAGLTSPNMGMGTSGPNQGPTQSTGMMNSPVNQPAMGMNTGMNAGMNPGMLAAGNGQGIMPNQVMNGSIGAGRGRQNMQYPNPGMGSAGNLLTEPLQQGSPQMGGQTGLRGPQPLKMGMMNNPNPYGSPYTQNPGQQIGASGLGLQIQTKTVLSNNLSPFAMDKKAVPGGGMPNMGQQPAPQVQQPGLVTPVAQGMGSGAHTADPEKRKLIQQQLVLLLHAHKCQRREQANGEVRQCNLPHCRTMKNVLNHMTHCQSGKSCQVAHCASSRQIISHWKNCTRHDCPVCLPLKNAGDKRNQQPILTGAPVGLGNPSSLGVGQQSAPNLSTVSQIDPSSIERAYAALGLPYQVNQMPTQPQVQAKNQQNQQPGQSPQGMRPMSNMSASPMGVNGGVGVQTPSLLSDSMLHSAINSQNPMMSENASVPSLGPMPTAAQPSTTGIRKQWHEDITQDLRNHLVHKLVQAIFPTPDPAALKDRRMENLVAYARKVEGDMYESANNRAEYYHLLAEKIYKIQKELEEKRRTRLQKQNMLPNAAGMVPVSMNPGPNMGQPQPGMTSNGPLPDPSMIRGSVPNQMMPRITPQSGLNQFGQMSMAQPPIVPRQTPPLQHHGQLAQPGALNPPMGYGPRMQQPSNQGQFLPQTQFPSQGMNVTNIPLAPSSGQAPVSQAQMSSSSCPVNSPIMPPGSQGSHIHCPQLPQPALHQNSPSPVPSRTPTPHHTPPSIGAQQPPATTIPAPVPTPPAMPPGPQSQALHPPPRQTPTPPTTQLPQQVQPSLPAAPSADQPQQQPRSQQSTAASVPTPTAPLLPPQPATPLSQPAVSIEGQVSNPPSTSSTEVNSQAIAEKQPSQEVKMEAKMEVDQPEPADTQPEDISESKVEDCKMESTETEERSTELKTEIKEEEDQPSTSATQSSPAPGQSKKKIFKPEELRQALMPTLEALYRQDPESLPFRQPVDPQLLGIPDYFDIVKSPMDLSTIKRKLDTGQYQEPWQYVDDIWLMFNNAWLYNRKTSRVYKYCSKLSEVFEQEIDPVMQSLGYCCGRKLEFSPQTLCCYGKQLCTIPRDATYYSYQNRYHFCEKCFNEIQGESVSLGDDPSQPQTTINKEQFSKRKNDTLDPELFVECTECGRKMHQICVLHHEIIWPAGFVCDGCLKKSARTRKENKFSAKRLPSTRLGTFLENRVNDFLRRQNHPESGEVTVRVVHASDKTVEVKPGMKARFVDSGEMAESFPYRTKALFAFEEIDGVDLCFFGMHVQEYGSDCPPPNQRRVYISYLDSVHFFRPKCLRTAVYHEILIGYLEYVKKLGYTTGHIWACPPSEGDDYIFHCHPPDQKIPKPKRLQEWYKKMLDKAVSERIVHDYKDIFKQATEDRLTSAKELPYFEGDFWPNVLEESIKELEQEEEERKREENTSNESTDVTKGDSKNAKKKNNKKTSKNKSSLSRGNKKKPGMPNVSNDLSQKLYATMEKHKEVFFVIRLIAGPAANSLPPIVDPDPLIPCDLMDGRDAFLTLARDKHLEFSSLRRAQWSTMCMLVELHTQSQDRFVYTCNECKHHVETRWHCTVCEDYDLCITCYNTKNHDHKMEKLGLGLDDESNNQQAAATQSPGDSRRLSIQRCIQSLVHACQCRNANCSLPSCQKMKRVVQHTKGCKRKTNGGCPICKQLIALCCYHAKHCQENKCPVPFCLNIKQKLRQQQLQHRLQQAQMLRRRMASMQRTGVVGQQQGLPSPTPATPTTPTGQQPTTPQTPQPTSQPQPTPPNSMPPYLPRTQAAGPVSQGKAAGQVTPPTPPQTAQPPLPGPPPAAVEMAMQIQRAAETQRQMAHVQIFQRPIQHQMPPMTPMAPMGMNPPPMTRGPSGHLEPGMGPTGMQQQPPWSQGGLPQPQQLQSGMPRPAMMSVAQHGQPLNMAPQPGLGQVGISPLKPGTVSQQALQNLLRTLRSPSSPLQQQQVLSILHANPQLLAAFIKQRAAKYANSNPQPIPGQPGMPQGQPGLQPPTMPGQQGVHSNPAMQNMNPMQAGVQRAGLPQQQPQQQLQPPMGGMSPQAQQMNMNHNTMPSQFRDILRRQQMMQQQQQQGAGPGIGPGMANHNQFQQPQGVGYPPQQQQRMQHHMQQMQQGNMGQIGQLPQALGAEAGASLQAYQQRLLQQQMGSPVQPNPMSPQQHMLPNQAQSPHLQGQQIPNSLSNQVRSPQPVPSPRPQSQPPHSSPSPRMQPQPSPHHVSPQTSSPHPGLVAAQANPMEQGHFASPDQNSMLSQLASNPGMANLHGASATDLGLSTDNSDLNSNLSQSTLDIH
UniProt Q9NRC8: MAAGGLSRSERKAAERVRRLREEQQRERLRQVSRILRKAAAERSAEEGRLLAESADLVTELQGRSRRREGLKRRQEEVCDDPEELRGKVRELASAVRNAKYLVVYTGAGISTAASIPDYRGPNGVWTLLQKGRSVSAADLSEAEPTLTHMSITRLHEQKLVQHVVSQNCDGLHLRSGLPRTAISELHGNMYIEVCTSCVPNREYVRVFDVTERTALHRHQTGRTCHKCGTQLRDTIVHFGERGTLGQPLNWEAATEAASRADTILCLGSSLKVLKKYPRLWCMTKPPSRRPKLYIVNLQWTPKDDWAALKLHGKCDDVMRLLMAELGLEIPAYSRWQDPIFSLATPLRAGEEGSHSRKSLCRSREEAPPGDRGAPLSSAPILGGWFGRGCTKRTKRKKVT

Legend:
[1] = target: T1, Myc-tagged glucokinase regulatory protein (GKRP), wild type (human) (UniProt Q14397); experiment: co-IP; HeLa cells cotransfected with the expression plasmids, lysed after 36 h (20 mM HEPES pH 7.4, 0.5% NP-40, 150 mM NaCl, 0.25% deoxycholate, 1 mM EDTA, TSA, NAM); 1 ug antibody overnight, protein G agarose 2 h at 4 C; immunoblot (GK-GKRP: IP anti-Myc or anti-V5, blot anti-His or anti-Myc)
T1 sequence: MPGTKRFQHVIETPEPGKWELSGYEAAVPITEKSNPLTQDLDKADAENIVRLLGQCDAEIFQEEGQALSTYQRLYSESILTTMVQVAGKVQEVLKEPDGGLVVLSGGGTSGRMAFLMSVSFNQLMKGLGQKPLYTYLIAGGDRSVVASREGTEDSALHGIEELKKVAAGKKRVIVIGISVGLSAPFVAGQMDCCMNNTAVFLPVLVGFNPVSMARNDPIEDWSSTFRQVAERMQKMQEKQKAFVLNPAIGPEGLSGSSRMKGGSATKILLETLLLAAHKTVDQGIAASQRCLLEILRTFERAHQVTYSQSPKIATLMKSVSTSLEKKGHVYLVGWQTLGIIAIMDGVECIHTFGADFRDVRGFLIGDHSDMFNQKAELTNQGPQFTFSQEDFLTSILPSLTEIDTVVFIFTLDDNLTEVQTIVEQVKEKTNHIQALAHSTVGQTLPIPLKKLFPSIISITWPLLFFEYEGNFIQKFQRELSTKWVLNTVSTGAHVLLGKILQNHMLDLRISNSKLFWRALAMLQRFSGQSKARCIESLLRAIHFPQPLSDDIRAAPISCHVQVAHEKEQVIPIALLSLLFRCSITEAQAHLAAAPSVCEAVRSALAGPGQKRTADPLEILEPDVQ

[2] = target: T1, Myc-tagged glucokinase regulatory protein (GKRP), wild type (human); experiment: as above; remark: listed apart in the source

Row | Molecule | binding [1] | binding [2]
1 | FLAG-tagged SIRT6 (from UniProt Q8N6T7 1-355) (enzyme) | binds | –
2 | p300 (EP300) (from UniProt Q09472 1-2414) (enzyme) | binds | –
3 | FLAG-tagged SIRT7 (from UniProt Q9NRC8 1-400) (enzyme) | binds | –
4 | FLAG-tagged SIRT4 (enzyme, UniProt Q9Y6E7 29-314) IGLFVPASPPLDPEKVKELQRFITLSKRLLVMTGAGISTESGIPDYRSEKVGLYARTDRRPIQHGDFVRSAPIRQRYWARNFVGWPQFSSHQPNPAHWALSTWEKLGKLYWLVTQNVDALHTKAGSRRLTELHGCMDRVLCLDCGEQTPRGVLQERFQVLNPTWSAEAHGLAPDGDVFLSEEQVRSFQVPTCVQCGGHLKPDVVFFGDTVNPDKVDFVHKRVKEADSLLVVGSSLQVYSGYRFILTAWEKKLPIAILNIGPTRSDDLACLKLNSRCGELLPLIDPC | – | binds
5 | Flag-tagged SIRT2 (enzyme, UniProt Q8IXJ6 1-389) MAEPDPSHPLETQAGKVQEAQDSDSDSEGGAAGGEADMDFLRNLFSQTLSLGSQKERLLDELTLEGVARYMQSERCRRVICLVGAGISTSAGIPDFRSPSTGLYDNLEKYHLPYPEAIFEISYFKKHPEPFFALAKELYPGQFKPTICHYFMRLLKDKGLLLRCYTQNIDTLERIAGLEQEDLVEAHGTFYTSHCVSASCRHEYPLSWMKEKIFSEVTPKCEDCQSLVKPDIVFFGESLPARFFSCMQSDFLKVDLLLVMGTSLQVQPFASLISKAPLSTPRLLINKEKAGQSDPFLGMIMGLGGGMDFDSKKAYRDVAWLGECDQGCLALAELLGWKKELEDLVRREHASIDAQSGAGVPNPSTSASPKKSPPPAKDEARTTEREKPQ | – | binds
